In ChEMBL document CHEMBL4715815, “Design, synthesis and biological evaluation of 7H-pyrrolo[2,3-d]pyrimidin-4-amine derivatives as selective Btk inhibitors with improved pharmacokinetic properties for the treatment of rheumatoid arthritis” (Eur J Med Chem, 2018):
In brackets after ≈: the same amount, converted by molar mass.

Test: Aqueous solubility of compound at 1 mg
Details: buffer

C=CC(=O)N1CCC(Cn2cc(-c3ccc4c(c3)OCO4)c3c(N)ncnc32)CC1
solubility: 100 µg/mL (≈ 247 µM)
